Where a chain is given by its changes, count along the chain named. The list shows a part of the results. The calls were merged from several studies; some rest on single wells.
Experiments:
Settings in all cases: stereoisomer not certain
O51G1 = system: T1, O51G1
T1 sequence (whole entry): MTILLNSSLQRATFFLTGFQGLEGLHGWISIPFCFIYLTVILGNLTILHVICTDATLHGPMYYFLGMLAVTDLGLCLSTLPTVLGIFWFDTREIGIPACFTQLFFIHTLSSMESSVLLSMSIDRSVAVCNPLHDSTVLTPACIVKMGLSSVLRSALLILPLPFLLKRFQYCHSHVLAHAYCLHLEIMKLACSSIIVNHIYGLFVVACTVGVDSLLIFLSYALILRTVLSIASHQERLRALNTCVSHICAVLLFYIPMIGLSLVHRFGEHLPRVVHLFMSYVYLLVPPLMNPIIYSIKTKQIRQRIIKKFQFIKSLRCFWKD
Outline: (§1)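 Whether a receptor–molecule pair is responsive (active) rests on the original authors' judgment that its measured signal was statistically different from baseline. Pairs without that judgment are non-responsive (inactive). Sources used varied assay methods, commonly transient luciferase assays in mammalian cell lines.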

Chains of the proteins cited; added tags and fusions are not shown. A line that says so, or that is headed by a name, gives the form on record, which may keep a tag or linker.
O51L1, as listed by the source: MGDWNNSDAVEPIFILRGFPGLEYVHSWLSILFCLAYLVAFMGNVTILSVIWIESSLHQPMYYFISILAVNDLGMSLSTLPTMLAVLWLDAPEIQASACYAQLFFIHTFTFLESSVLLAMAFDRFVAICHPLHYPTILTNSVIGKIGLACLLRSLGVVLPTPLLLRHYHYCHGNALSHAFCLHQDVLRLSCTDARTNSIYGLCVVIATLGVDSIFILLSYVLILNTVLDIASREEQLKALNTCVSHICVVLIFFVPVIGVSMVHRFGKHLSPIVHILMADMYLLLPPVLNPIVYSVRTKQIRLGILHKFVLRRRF
O51V1, as listed by the source: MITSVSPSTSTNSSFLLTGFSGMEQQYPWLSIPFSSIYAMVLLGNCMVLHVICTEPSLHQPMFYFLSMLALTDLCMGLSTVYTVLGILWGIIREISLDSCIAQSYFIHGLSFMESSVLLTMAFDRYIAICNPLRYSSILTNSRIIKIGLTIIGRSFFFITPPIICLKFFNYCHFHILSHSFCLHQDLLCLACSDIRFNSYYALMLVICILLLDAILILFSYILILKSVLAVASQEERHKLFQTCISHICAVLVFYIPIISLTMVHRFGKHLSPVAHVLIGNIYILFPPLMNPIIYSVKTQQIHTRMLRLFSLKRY

O51G2 = system: T2, O51G2
T2 sequence (whole entry): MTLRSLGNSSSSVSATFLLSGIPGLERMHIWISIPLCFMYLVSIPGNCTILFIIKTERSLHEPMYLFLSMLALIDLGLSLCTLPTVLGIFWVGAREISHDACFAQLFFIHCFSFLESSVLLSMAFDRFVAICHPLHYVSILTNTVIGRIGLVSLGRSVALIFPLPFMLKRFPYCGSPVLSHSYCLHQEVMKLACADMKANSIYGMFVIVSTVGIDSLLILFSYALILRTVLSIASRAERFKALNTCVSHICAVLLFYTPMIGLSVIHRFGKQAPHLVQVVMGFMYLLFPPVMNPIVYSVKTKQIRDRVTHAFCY
Outline: as §1

O51J1 = system: T3, O51J1
T3 sequence (whole entry): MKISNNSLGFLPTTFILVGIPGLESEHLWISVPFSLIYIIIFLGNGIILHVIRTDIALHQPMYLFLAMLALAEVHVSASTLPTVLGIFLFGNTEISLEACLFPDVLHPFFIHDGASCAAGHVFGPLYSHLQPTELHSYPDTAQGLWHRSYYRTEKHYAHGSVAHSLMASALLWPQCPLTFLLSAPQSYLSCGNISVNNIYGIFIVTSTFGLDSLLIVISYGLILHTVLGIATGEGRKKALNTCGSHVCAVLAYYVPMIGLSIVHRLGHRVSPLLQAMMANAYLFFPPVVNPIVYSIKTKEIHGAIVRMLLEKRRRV
Outline: as §1

O51L1 [1] = system: T4, O51L1
T4 sequence (whole entry): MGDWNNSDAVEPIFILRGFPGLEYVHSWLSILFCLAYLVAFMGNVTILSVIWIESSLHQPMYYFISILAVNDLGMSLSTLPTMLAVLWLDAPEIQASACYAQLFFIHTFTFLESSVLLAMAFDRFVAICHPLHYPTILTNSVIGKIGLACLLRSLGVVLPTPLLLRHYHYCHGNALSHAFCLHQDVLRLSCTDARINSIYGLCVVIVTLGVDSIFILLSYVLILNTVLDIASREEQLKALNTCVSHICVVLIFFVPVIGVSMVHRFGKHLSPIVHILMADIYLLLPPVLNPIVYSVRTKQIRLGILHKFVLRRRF
Outline: as §1

O51L1 [2] = system: T5, O51L1; remark: listed apart in the source
T5 sequence (whole entry): T4 sequence (whole entry) with I196T, V207A, I281M
Outline: as §1

O51M1 = system: T6, O51M1
T6 sequence (whole entry): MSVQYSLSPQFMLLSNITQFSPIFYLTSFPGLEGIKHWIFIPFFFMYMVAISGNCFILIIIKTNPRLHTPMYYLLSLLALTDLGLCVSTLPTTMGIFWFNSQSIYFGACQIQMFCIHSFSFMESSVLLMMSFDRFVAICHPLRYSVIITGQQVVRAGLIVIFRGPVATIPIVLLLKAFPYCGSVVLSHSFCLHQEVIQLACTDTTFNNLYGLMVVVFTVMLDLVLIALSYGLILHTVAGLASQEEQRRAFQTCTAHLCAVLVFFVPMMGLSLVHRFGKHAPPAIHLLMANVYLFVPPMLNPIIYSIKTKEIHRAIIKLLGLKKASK
Outline: as §1

O51Q1 = system: T7, O51Q1
T7 sequence (whole entry): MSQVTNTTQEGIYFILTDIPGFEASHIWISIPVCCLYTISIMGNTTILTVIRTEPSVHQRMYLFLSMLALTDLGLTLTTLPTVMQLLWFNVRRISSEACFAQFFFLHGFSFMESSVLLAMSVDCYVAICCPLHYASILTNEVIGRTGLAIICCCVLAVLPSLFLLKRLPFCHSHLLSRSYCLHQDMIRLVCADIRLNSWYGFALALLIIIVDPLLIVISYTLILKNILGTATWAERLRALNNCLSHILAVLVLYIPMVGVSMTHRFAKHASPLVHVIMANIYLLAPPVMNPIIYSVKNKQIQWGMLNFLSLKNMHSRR
Outline: as §1

O51T1 = system: T8, O51T1
T8 sequence (whole entry): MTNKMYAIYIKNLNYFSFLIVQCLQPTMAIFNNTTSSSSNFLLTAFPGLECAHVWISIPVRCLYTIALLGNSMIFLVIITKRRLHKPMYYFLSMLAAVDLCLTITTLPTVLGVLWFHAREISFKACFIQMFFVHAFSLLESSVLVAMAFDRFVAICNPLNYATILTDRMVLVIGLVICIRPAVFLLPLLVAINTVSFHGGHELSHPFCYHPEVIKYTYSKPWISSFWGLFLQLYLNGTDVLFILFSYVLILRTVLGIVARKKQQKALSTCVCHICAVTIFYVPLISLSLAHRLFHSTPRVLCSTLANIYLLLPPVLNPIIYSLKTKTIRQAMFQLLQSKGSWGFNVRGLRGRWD
Outline: as §1

O51V1 [3] = system: T9, O51V1
T9 sequence (whole entry): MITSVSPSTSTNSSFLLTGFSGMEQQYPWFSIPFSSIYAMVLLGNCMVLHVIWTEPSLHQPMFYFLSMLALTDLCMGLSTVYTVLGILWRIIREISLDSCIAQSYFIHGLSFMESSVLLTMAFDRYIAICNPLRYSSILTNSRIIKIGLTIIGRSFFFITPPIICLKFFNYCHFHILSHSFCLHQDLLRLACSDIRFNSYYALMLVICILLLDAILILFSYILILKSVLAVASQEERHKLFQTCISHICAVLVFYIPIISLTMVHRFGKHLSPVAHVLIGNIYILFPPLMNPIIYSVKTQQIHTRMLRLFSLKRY
Outline: as §1

O51V1 [4] = system: T10, O51V1; remark: listed apart in the source
T10 sequence (whole entry): T9 sequence (whole entry) with F30L, W53C, R90G, R189C
Outline: as §1
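Also: active if original authors judged signal statistically different from baseline.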

| Structure (SMILES) | odorant receptor agonist call (O51G1) | odorant receptor agonist call (O51G2) | odorant receptor agonist call (O51J1) | odorant receptor agonist call (O51L1 [1]) | odorant receptor agonist call (O51L1 [2]) | odorant receptor agonist call (O51M1) | odorant receptor agonist call (O51Q1) | odorant receptor agonist call (O51T1) | odorant receptor agonist call (O51V1 [3]) | odorant receptor agonist call (O51V1 [4]) |
| --- | --- | --- | --- | --- | --- | --- | --- | --- | --- | --- |
| CC(=O)OCC=C(C)CCC=C(C)C | inactive | inactive | inactive | inactive | inactive | active | inactive | inactive | inactive | active |
| O=C1CCCCC1 | inactive | inactive | – | inactive | inactive | – | inactive | inactive | – | – |
| CC(=O)c1ccccc1 | inactive | inactive | – | inactive | inactive | – | inactive | active | – | – |
| C=C(C)C1CCC2=CC(=O)CC(C)C2(C)C1 (stereo not drawn) | – | – | active | – | – | active | – | – | active | active |
| CC(C)(O)CCCC1=CCC(C=O)CC1 (stereo not drawn) | – | – | inactive | – | – | inactive | – | – | inactive | inactive |
| CC1=NC(C)SC1C (stereo not drawn) | inactive | inactive | – | inactive | inactive | – | inactive | inactive | – | – |
| CCCCCC(C)=O | inactive | inactive | – | inactive | inactive | – | inactive | inactive | – | – |
| CC1=CCC(C(C)(C)O)CC1 (stereo not drawn) | inactive | inactive | inactive | inactive | inactive | inactive | inactive | inactive | inactive | inactive |
| CCCC(=O)O | inactive | inactive | inactive | inactive | inactive | inactive | inactive | inactive | inactive | inactive |
| O=C1CCCCCCCCCCCC(=O)OCCO1 | inactive | inactive | inactive | inactive | inactive | active | inactive | inactive | active | inactive |
| CCCCCCCC=CC=O | inactive | inactive | inactive | inactive | inactive | inactive | inactive | inactive | inactive | inactive |
| CC(C)CCC(=O)O | inactive | inactive | inactive | inactive | active | inactive | inactive | inactive | inactive | inactive |
| CCCCCCCOC(C)=O | inactive | inactive | inactive | inactive | inactive | inactive | inactive | inactive | inactive | inactive |
| CC12C=CCC1C1CCC3CC(=O)CCC3(C)C1CC2 (stereo not drawn) | inactive | active | inactive | inactive | inactive | inactive | active | inactive | inactive | inactive |
| CCCCCCCCCCC=O | inactive | inactive | inactive | inactive | inactive | inactive | inactive | inactive | inactive | active |
| CCCCCCOC(=O)CCC | inactive | inactive | inactive | inactive | inactive | inactive | inactive | inactive | inactive | inactive |
| COC(=O)c1ccccc1 | inactive | inactive | – | inactive | inactive | – | inactive | inactive | – | – |
| C=CCc1ccc(OC(C)=O)c(OC)c1 | inactive | inactive | active | inactive | inactive | active | inactive | inactive | active | active |
| C=CCc1ccc(OC)c(OC)c1 | inactive | inactive | inactive | inactive | inactive | active | inactive | inactive | inactive | inactive |
| CCCCCC(=O)O | inactive | inactive | inactive | active | active | inactive | inactive | inactive | inactive | inactive |
| CC12CCC(CC1)C(C)(C)O2 | inactive | inactive | inactive | inactive | inactive | inactive | inactive | inactive | inactive | inactive |
| CCCCCOC(C)=O | inactive | inactive | inactive | inactive | inactive | inactive | inactive | inactive | inactive | inactive |
| C=CC(C)(O)CCC=C(C)C (stereo not drawn) | inactive | inactive | inactive | inactive | inactive | active | inactive | inactive | inactive | inactive |
| COc1cc(C)ccc1O | inactive | inactive | inactive | inactive | inactive | inactive | inactive | inactive | inactive | inactive |
| CC(C)CC(=O)O | inactive | inactive | inactive | inactive | inactive | active | inactive | inactive | inactive | inactive |
| CC12CCC(C1)C(C)(C)C2=O (stereo not drawn) | inactive | inactive | inactive | inactive | inactive | active | inactive | inactive | inactive | inactive |
| CCC=CCCO | inactive | inactive | inactive | inactive | inactive | inactive | inactive | inactive | inactive | inactive |

An excerpt from the list above, as a working copy:

| Structure (SMILES) | odorant receptor agonist call (O51G1) | odorant receptor agonist call (O51G2) | odorant receptor agonist call (O51J1) | odorant receptor agonist call (O51L1 [1]) | odorant receptor agonist call (O51L1 [2]) | odorant receptor agonist call (O51M1) | odorant receptor agonist call (O51Q1) | odorant receptor agonist call (O51T1) | odorant receptor agonist call (O51V1 [3]) | odorant receptor agonist call (O51V1 [4]) |
| --- | --- | --- | --- | --- | --- | --- | --- | --- | --- | --- |
| CCCCCOC(C)=O | inactive | inactive | inactive | inactive | inactive | inactive | inactive | inactive | inactive | inactive |
| C=CC(C)(O)CCC=C(C)C (stereo not drawn) | inactive | inactive | inactive | inactive | inactive | active | inactive | inactive | inactive | inactive |

From the M2OR odorant receptor database
